PubChem BioAssay AID504744 – Drosophila RNAi Screening Center | 2011
The deposit covers about 23,000 reagents; shown is a random part of those with a known target gene and a result. Over the whole deposit, 98 (0.43%) are marked active. 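Only hit calls are given; the phospho-dAkt signals, z-scores and hit direction were not deposited.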 Names joined by + are all predicted targets of the reagent.

- Test: 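Uncover factors, including feedback loops, that control dAkt activation in fly cells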 (primary screen)
- Cell system: Drosophila Kc167 cells
- Knock-down reagent: long dsRNA against Drosophila genes, 250 ng dsRNA per well of a 384-well plate
- Timing: 3 days of knock-down, then overnight serum-free starvation before stimulation
- Challenge: bovine insulin at 387 nM for 10 minutes after 12 h without serum
- Measured: 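In-cell antibody fluorescence for phospho-dAkt in each well over DNA-dye signal, with log2 residuals expressed as z-scores adjusted for cell count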
- Hit rule: 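Hit in the insulin screen when the two-replicate mean z-score is more extreme than plus or minus 2.5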

| Gene | DRSC id | activity call |
| --- | --- | --- |
| CG5861 | DRSC02907 | inactive |
| caps | DRSC11333 | inactive |
| caps | DRSC22224 | inactive |
| mRpL14 | DRSC18597 | inactive |
| eve | DRSC07614 | inactive |
| Gprk1 | DRSC20732 | inactive |
| Gprk1 | DRSC20916 | inactive |
| CG13358 | DRSC18534 | inactive |
| Vps13 | DRSC06817 | inactive |
| CG34171 | DRSC01637 | inactive |
| CG42675 | DRSC12157 | inactive |
| CG42675 | DRSC21868 | inactive |
| Opa1 | DRSC07191 | inactive |
| Bcs1 | DRSC02789 | inactive |
| Trissin | DRSC14994 | inactive |
| nab | DRSC08455 | inactive |
| nab | DRSC08456 | inactive |
| Srp14 | DRSC15797 | inactive |
| CG4860 | DRSC15664 | inactive |
| CG4860 | DRSC21755 | inactive |
| Membrin | DRSC10448 | inactive |
| CG1537 | DRSC19662 | inactive |
| Dscam1 | DRSC05047 | inactive |
| Dscam1 | DRSC05048 | inactive |
| Dscam1 | DRSC07407 | inactive |
| Dscam1 | DRSC21562 | inactive |
| Dscam1 | DRSC22383 | inactive |
| CG16898 | DRSC06635 | inactive |
| Ms | DRSC16041 | inactive |
| CG17999 | DRSC04300 | inactive |
| ND-20L | DRSC15414 | inactive |
| TkR99D | DRSC16881 | inactive |
| rasp | DRSC08191 | inactive |
| Zif | DRSC12514 | inactive |
| Obp46a | DRSC06220 | inactive |
| CG34375 | DRSC14684 | inactive |
| CG34375 | DRSC14685 | inactive |
| CG5359 | DRSC15780 | inactive |
| kkv | DRSC12315 | inactive |
| CG4744 | DRSC06887 | inactive |
| Lap1 | DRSC07454 | inactive |
| CG8838 | DRSC00712 | inactive |
| HP4 | DRSC10958 | inactive |
| CG6048 | DRSC18398 | inactive |
| CG9933 | DRSC03276 | inactive |
| Teh4 | DRSC08457 | inactive |
| CG3222 | DRSC10355 | inactive |
| CG10669 | DRSC14261 | inactive |
| Rubicon | DRSC17889 | inactive |
| Glys | DRSC16130 | inactive |
| CG32147 | DRSC09346 | inactive |
| Nxt1 | DRSC04630 | inactive |
| nerfin-2 | DRSC14547 | inactive |
| Tom | DRSC11306 | inactive |
| dsf | DRSC03524 | inactive |
| CR31822 | DRSC01510 | inactive |
| CG9444 | DRSC16493 | inactive |
| CAH8 | DRSC15784 | inactive |
| CG14301 | DRSC14780 | inactive |
| mRpS22 | DRSC14488 | inactive |
| CG3088 | DRSC10352 | inactive |
| CG32639 | DRSC18972 | inactive |
| CG15745 (retired record) | DRSC19711 | inactive |
| CG42516 + Pbp49 | DRSC06073 | inactive |
| CG42271 | DRSC19809 | inactive |
| CG42271 | DRSC22894 | inactive |
| RpS15Ab + RpS15Aa | DRSC06129 | inactive |
| RpS15Ab + RpS15Aa | DRSC19831 | inactive |
| CG4853 | DRSC06898 | inactive |
| CG31272 | DRSC16058 | inactive |
| Bre1 | DRSC09742 | inactive |
| Targ2 | DRSC21970 | inactive |
| CG3640 | DRSC04399 | inactive |
| CG1941 | DRSC06802 | inactive |
| CG7201 | DRSC10786 | inactive |
| CG15615 | DRSC06568 | inactive |
| rho-5 | DRSC02847 | inactive |
| mAcon2 | DRSC15629 | inactive |
| Dyb | DRSC07208 | inactive |
| Dyb | DRSC22862 | inactive |
| Naa20B | DRSC21442 | inactive |
| LamC | DRSC07453 | inactive |
| Spindly | DRSC00430 | inactive |
| Smyd4-1 | DRSC06785 | inactive |
| Kcmf1 | DRSC14459 | inactive |
| Grx1t | DRSC04530 | inactive |
| PGRP-SB1 | DRSC11090 | inactive |
| CG10184 | DRSC14204 | inactive |

Next part (14 carried over from the part before).
| Gene | DRSC id | activity call |
| --- | --- | --- |
| CG7201 | DRSC10786 | inactive |
| CG15615 | DRSC06568 | inactive |
| rho-5 | DRSC02847 | inactive |
| mAcon2 | DRSC15629 | inactive |
| Dyb | DRSC07208 | inactive |
| Dyb | DRSC22862 | inactive |
| Naa20B | DRSC21442 | inactive |
| LamC | DRSC07453 | inactive |
| Spindly | DRSC00430 | inactive |
| Smyd4-1 | DRSC06785 | inactive |
| Kcmf1 | DRSC14459 | inactive |
| Grx1t | DRSC04530 | inactive |
| PGRP-SB1 | DRSC11090 | inactive |
| CG10184 | DRSC14204 | inactive |
| Ucp4C | DRSC03132 | inactive |
| CG31810 | DRSC01560 | inactive |
| CG17260 | DRSC00497 | inactive |
| mAChR-A | DRSC04702 | inactive |
| gfzf | DRSC12506 | inactive |
| gfzf | DRSC21874 | inactive |
| Nacalpha | DRSC07477 | inactive |
| Echs1 | DRSC06999 | inactive |
| CG12909 | DRSC06224 | inactive |
| CG9389 | DRSC11857 | inactive |
| CG4074 + CG4186 | DRSC11753 | inactive |
| CheB38b | DRSC22874 | inactive |
| CG42712 (retired record) | DRSC01038 | inactive |
| CG14667 | DRSC12253 | inactive |
| Cul6 | DRSC09830 | inactive |
| CG6171 | DRSC15982 | inactive |
| Yip1d1 | DRSC02166 | inactive |
| CG8323 | DRSC07149 | inactive |
| Act57B | DRSC04042 | inactive |
| side-IV | DRSC14833 | inactive |
| Spc25 | DRSC14164 | inactive |
| Pka-R1 | DRSC11674 | inactive |
| Pka-R1 | DRSC11875 | inactive |
| al | DRSC00799 | inactive |
| PRL-1 | DRSC03393 | inactive |
| Jon25Bi | DRSC03434 | inactive |
| Tep2 | DRSC02679 | inactive |
| Tep2 | DRSC03451 | inactive |
| dy | DRSC20325 | inactive |
| Orc2 | DRSC16776 | inactive |
| Ass + CG31286 | DRSC12493 | inactive |
| CG17121 | DRSC15176 | inactive |
| Skp2 | DRSC12329 | inactive |
| snoRNA:U31:54Ec + snoRNA:snR38:54Eb + snoRNA:U27:54Eb + 8 more | DRSC06458 | inactive |
| sog | DRSC20379 | inactive |
| nopo | DRSC06918 | inactive |
| Lsp2 | DRSC09841 | inactive |
| Lsp2 | DRSC11216 | inactive |
| CG30039 | DRSC21794 | inactive |
| PH4alphaPV | DRSC22400 | inactive |
| Mtr4 | DRSC03560 | inactive |
| Doc3 | DRSC10480 | inactive |
| CG10139 | DRSC05972 | inactive |
| CG4364 | DRSC02742 | inactive |
| amos | DRSC03484 | inactive |
| kraken | DRSC00824 | inactive |
| l(3)psg2 | DRSC10484 | inactive |
| Atg12 | DRSC09803 | inactive |
| Or7a | DRSC18691 | inactive |
| CG13458 | DRSC10005 | inactive |
| EloC | DRSC07423 | inactive |
| CG33124 | DRSC00298 | inactive |
| psh | DRSC19990 | inactive |
| CG7031 | DRSC16178 | inactive |
| CG17633 | DRSC02631 | inactive |
| CG31915 | DRSC03000 | inactive |
| apn | DRSC15124 | inactive |
| CG30378 | DRSC05071 | inactive |
| Gfat1 | DRSC21219 | inactive |
| CG7966 | DRSC16356 | inactive |
| CG4502 | DRSC02755 | inactive |
| Nnf1a | DRSC06394 | inactive |
| CG17186 | DRSC15180 | inactive |
| Ctr1A | DRSC18336 | inactive |
| CG12935 | DRSC06248 | inactive |
| Patj | DRSC08712 | inactive |
| kto | DRSC10983 | inactive |
| Prm | DRSC08941 | inactive |
| Prm | DRSC08942 | inactive |
| Prm | DRSC11255 | inactive |
| CG6683 | DRSC10694 | inactive |
| CG32437 | DRSC11760 | inactive |
| CG32437 | DRSC22020 | inactive |
| CG32668 | DRSC18879 | inactive |
| CG15445 | DRSC20517 | inactive |
| TotF | DRSC02305 | inactive |
| CG4631 | DRSC02766 | inactive |
| CG4631 | DRSC22194 | inactive |
| rhi | DRSC05996 | inactive |
| Mal-A5 | DRSC07232 | inactive |
| CG34263 | DRSC07866 | inactive |
| CG45263 | DRSC12682 | inactive |
| CG45263 | DRSC14360 | inactive |
| CG45263 | DRSC14361 | inactive |
| CG45263 | DRSC14363 | inactive |
| CG17712 | DRSC00266 | inactive |
| Rtel1 | DRSC18343 | inactive |
| CG14752 | DRSC06488 | inactive |
| Galphas | DRSC04616 | inactive |
| lobo | DRSC14662 | inactive |
| lobo | DRSC14663 | inactive |
| CG3306 | DRSC10357 | inactive |
| CG30060 | DRSC05419 | inactive |
| CG7695 | DRSC16289 | inactive |
| CG7886 | DRSC16333 | inactive |
| Or67c | DRSC11242 | inactive |
| Rbm13 | DRSC17749 | inactive |
| CR31427 | DRSC22675 | inactive |
| pwn | DRSC06035 | inactive |
| CG32642 | DRSC18959 | inactive |
| CG17974 | DRSC04299 | inactive |
| isoQC | DRSC11790 | inactive |
| CG17834 | DRSC02637 | inactive |
| bou | DRSC17924 | inactive |
| Ggt-1 | DRSC19993 | inactive |
| lqfR | DRSC14703 | inactive |
| lqfR | DRSC14704 | inactive |
| wcd | DRSC07051 | inactive |
| kairos | DRSC19972 | inactive |
| CG3108 | DRSC18280 | inactive |
| Abp1 | DRSC09693 | inactive |
| CG9705 | DRSC11094 | inactive |
